The results in this text go back to the supplement of paper PMC6411743.

Sequences of proteins named here, by UniProt entry; tags and fusion partners are left off. A change or cut given only in a name is not applied to a line headed by its entry.
UniProt O00399, whole entry: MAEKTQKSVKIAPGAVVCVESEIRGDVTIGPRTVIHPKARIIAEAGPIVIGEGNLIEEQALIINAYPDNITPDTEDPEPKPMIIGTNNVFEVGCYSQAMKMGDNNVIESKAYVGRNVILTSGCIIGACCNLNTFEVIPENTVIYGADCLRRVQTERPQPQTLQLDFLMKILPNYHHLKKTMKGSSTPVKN
UniProt O15116: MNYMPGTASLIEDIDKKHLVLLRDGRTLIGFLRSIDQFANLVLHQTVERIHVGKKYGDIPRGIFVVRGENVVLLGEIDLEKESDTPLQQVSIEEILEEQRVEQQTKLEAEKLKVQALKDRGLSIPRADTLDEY
UniProt O15015: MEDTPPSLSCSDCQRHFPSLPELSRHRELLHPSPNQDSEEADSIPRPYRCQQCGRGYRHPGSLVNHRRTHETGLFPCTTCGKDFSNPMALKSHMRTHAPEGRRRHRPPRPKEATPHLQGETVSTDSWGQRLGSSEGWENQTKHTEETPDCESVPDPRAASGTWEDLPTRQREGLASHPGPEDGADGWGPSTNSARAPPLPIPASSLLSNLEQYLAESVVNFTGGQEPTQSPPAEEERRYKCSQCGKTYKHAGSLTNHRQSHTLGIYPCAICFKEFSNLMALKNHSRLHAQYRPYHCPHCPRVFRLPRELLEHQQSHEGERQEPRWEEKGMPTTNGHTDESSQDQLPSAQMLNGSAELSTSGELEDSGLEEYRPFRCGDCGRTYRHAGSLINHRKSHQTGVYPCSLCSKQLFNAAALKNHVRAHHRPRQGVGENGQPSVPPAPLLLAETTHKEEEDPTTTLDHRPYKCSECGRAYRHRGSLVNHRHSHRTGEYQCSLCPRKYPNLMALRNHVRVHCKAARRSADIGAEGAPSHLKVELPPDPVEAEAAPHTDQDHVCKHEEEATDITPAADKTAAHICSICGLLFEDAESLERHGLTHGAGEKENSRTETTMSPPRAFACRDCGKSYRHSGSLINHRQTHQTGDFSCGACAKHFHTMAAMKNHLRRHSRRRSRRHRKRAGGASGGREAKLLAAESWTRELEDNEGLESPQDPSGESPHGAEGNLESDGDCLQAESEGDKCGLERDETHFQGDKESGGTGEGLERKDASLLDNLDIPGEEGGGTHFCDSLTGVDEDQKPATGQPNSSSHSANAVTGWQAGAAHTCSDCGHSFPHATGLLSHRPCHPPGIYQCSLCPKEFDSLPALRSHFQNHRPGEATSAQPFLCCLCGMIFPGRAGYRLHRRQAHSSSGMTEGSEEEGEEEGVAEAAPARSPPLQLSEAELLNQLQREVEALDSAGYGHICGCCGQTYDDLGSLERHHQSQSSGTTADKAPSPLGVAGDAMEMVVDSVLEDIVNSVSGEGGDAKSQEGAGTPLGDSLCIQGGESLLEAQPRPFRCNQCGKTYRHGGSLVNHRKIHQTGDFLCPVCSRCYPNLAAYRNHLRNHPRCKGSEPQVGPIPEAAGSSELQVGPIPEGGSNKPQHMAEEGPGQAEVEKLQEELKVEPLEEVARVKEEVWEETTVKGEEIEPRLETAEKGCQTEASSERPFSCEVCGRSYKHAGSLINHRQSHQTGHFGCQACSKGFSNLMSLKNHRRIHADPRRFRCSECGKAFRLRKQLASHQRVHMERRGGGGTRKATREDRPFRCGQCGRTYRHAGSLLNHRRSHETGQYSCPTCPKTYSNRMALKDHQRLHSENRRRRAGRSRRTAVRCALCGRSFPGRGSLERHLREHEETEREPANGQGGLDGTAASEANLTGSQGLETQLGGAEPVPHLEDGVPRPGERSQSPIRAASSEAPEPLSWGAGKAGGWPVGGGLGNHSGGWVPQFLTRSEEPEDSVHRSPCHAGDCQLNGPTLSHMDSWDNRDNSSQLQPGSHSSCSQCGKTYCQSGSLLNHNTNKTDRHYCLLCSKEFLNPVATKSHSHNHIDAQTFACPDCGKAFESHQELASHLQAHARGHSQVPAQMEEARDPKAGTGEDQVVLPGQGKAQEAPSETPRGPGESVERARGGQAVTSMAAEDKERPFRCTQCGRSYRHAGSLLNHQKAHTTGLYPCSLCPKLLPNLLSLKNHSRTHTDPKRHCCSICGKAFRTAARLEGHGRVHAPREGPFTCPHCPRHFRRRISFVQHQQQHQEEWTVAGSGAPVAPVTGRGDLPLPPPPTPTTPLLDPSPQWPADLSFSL
UniProt O15020, whole entry: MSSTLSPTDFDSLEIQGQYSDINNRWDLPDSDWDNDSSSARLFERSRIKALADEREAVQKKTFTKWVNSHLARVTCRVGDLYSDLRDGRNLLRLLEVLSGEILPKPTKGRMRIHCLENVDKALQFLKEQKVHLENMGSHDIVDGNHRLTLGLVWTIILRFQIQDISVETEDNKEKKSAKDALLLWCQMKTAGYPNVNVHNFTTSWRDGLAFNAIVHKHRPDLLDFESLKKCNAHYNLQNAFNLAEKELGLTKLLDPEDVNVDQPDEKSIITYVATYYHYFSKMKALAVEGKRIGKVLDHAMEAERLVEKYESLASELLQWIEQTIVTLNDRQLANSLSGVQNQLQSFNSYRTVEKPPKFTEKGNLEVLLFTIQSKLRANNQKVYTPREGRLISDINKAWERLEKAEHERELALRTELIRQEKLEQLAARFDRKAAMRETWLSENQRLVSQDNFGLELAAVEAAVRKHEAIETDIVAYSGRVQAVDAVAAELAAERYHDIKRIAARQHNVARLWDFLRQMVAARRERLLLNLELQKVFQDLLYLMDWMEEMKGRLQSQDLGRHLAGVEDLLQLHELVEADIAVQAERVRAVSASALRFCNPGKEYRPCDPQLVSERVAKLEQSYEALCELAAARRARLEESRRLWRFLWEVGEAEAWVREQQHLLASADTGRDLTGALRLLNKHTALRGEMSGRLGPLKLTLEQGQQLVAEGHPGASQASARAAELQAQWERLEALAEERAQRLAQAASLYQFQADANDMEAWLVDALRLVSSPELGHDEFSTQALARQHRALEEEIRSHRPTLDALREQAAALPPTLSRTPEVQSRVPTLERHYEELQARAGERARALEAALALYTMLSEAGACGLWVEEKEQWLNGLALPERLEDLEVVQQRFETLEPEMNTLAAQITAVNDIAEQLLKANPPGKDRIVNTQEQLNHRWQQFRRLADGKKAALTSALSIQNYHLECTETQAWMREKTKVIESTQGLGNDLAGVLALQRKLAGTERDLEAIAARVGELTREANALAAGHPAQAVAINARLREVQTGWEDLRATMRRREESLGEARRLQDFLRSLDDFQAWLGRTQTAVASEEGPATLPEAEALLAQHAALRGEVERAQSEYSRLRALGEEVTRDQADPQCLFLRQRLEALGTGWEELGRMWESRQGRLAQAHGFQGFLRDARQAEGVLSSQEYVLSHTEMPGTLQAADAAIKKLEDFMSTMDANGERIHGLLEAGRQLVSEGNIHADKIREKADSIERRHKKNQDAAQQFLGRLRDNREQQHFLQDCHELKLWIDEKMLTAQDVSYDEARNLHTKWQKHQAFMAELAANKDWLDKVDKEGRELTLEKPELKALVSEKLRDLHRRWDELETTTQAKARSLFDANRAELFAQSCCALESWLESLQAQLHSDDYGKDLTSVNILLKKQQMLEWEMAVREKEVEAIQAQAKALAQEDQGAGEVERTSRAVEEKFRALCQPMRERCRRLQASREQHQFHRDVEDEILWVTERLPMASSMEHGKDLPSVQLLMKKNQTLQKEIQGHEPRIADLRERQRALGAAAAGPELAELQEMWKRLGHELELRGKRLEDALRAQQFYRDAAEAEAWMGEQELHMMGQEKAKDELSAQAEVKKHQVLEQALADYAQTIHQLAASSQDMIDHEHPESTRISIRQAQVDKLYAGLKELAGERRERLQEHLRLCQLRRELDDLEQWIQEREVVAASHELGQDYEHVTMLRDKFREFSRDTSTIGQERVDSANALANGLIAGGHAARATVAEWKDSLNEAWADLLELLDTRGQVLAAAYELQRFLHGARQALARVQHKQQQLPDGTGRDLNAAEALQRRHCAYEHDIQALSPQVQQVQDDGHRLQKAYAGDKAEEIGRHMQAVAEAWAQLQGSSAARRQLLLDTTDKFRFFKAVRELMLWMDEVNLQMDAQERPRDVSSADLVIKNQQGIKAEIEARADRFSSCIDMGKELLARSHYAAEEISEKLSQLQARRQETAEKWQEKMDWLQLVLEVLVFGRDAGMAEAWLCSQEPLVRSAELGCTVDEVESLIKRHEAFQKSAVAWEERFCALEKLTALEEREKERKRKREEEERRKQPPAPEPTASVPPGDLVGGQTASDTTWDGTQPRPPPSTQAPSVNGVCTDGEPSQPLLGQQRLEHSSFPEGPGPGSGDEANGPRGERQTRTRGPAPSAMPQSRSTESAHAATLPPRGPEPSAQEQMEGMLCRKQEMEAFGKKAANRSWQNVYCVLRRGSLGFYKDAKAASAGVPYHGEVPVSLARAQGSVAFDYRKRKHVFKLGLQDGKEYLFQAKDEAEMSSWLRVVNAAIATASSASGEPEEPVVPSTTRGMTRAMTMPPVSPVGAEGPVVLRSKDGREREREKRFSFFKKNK
UniProt Q96AB3: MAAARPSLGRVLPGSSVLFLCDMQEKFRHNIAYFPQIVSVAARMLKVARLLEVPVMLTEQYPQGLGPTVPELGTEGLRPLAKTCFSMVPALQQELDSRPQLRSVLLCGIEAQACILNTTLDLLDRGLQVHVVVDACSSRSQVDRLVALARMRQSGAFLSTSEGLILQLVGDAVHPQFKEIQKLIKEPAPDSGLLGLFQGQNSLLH
UniProt O15355: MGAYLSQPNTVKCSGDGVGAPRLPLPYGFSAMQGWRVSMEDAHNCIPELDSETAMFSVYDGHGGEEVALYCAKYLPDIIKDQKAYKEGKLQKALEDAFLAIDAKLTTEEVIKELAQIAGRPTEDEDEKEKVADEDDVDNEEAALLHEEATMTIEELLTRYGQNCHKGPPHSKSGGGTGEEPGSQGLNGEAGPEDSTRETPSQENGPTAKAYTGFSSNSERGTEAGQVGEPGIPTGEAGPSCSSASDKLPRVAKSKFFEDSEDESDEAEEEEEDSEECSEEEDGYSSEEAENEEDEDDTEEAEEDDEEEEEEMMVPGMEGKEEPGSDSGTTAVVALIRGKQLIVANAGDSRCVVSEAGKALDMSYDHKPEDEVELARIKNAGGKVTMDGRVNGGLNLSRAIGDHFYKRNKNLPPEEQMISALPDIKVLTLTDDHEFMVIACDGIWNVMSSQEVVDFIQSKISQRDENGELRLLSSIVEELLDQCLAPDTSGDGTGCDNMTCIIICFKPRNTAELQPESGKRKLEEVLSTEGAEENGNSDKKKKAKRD
UniProt O14980, whole entry: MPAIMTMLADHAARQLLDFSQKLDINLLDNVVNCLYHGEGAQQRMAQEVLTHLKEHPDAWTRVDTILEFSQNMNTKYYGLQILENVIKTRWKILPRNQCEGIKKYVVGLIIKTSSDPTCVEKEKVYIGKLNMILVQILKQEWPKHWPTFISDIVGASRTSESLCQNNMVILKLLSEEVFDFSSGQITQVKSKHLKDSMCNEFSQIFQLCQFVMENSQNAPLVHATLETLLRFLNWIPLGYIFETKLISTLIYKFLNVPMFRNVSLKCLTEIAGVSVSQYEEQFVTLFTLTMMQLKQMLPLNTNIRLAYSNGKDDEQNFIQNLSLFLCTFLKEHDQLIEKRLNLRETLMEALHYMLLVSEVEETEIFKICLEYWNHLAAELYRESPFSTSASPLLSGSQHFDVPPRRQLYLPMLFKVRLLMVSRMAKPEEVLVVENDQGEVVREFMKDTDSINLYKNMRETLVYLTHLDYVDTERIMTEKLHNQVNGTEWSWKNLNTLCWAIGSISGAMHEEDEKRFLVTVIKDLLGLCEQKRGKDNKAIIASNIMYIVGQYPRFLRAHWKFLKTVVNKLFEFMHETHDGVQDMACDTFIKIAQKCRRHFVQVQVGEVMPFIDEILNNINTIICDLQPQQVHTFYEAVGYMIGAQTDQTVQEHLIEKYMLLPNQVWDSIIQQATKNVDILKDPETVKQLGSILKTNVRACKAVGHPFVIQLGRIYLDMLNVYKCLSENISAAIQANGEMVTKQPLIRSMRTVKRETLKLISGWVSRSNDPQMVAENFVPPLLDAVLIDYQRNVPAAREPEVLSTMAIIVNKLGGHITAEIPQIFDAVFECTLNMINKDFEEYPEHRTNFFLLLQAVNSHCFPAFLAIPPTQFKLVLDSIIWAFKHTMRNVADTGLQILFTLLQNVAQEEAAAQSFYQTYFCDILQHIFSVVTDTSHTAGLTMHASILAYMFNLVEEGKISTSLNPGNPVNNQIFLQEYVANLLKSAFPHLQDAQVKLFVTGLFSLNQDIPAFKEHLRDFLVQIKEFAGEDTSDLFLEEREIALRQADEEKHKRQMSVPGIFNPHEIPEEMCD
UniProt O43665: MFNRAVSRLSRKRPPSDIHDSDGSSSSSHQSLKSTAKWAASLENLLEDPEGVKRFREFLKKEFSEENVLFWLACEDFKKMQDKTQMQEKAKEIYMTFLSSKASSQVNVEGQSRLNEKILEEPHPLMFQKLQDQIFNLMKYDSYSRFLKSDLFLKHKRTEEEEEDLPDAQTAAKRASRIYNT

± gives the standard deviation of the averaged measurements. This is a selection; strong and weak results do not stand in their true shares. Small differences around the control level are noise.

Compound in one experiment: Nc1ncnc2c1ncn2[C@@H]1O[C@H](COP(=O)(O)OP(=O)(O)NP(=O)(O)O)[C@@H](O)[C@H]1O [adenylyl imidodiphosphate]
The experiment can be described thus: NP40-soluble protein abundance relative to vehicle (solubility fold change) (ratio); higher = more soluble protein in presence of AMP-PNP. Particulars: concentration: 0.1mM. The essentials: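 Jurkat crude lysate prepared with a Dounce homogeniser was treated at eight concentrations spanning 0.1 to 10 mM, 10 min at room temperature then 3 min at 37 °C. Solubilisation with 0.8% NP40 and benzonase and ultracentrifugation preceded TMT labelling of the supernatant for LC-MS/MS. Fold change against the detergent-processed vehicle was determined per replicate from vsn-normalised intensities, across three independent experiments.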
With DCTN6 (UniProt O00399), the NP40-soluble protein abundance was 1 ± 0.086.

Take “K7EKG9 and related entries (UniProt Q14CW9)”: the NP40-soluble protein abundance worked out at 1.02 ± 0.029.

In the case of LSM1 (UniProt O15116), the NP40-soluble protein abundance is 0.972 ± 0.037.

With SCAMP3 (UniProt O14828), the NP40-soluble protein abundance stood at 1.01 ± 0.018.

Regarding UniProt O15530 and related entries, the NP40-soluble protein abundance turned out to be 0.957 ± 0.074.

UniProt O43148 and related entries: the NP40-soluble protein abundance is 0.9841 ± 0.0061.

For the target “K7EM18 and related entries (UniProt P41567)”, the NP40-soluble protein abundance worked out at 1.04 ± 0.016.

As for CHMP2A (UniProt O43633), the NP40-soluble protein abundance was 0.975 ± 0.03.

As to PIK3R2 (UniProt O00459), the NP40-soluble protein abundance is 0.975 ± 0.042.

As for UniProt O43379-4|O43379, the NP40-soluble protein abundance was determined as 1 ± 0.024.

On to TAF4 (UniProt O00268), for which the NP40-soluble protein abundance was found to be 1 ± 0.078.

For SPTLC2 (UniProt O15270), the NP40-soluble protein abundance was 1 ± 0.033.

For POLRMT (UniProt O00411), the NP40-soluble protein abundance turned out to be 1 ± 0.067.

For the target UniProt O43150 and related entries, the NP40-soluble protein abundance came out at 0.989 ± 0.031.

HMGN4 (UniProt O00479): the NP40-soluble protein abundance stood at 0.9915 ± 0.0033.

Regarding M0QZR4 (UniProt Q92888), the NP40-soluble protein abundance amounted to 1.012 ± 0.0059.

As for UniProt O43318-2|O43318, the NP40-soluble protein abundance was determined as 0.984 ± 0.032.

“K7EMK7 and related entries (UniProt Q04725)”: the NP40-soluble protein abundance is 0.988 ± 0.019.

UniProt O14617 and related entries: the NP40-soluble protein abundance was found to be 0.9942 ± 0.0039.

Regarding UniProt O15015 and related entries, the NP40-soluble protein abundance is 0.99314 ± 0.00064.

Regarding UniProt O00463 and related entries, the NP40-soluble protein abundance stood at 0.971 ± 0.022.

UniProt O15020 and related entries: the NP40-soluble protein abundance was determined as 0.994 ± 0.014.

Take UniProt O14773 and related entries: the NP40-soluble protein abundance turned out to be 1.04 ± 0.024.

As for UniProt O14787-2, the NP40-soluble protein abundance is 1.05 ± 0.032.

For the target “K7EKW4 and related entries (UniProt Q96AB3)”, the NP40-soluble protein abundance was 1.03 ± 0.042.

On to NDUFA4 (UniProt O00483), for which the NP40-soluble protein abundance worked out at 1.02 ± 0.076.

Regarding NDC80 (UniProt O14777), the NP40-soluble protein abundance was 0.987 ± 0.01.

Take UniProt O43524 and related entries: the NP40-soluble protein abundance worked out at 1.02 ± 0.035.

PPM1G (UniProt O15355): the NP40-soluble protein abundance is 0.976 ± 0.025.

On to “M0R0P7 and related entries (UniProt Q02543)”, for which the NP40-soluble protein abundance is 1.028 ± 0.0081.

Consider UniProt O00743 and related entries, for which the NP40-soluble protein abundance stood at 1.042 ± 0.0029.

On to XPO1 (UniProt O14980), for which the NP40-soluble protein abundance was 0.985 ± 0.067.

Turning to ARID1A (UniProt O14497), the NP40-soluble protein abundance came to 1 ± 0.032.

As for UniProt O43665 and related entries, the NP40-soluble protein abundance was found to be 0.963 ± 0.042.

For the target SLC16A3 (UniProt O15427), the NP40-soluble protein abundance was determined as 0.997 ± 0.035.

On to UniProt O15226 and related entries, for which the NP40-soluble protein abundance is 1.01 ± 0.021.

On to PPIH (UniProt O43447), for which the NP40-soluble protein abundance was determined as 0.992 ± 0.031.

For the target “K7ESQ0 and related entries (UniProt Q9H6Z4)”, the NP40-soluble protein abundance stood at 0.995 ± 0.02.

The experiment is the same for the next values; noted with them: concentration: 0.5mM.
In the case of DCTN6 (UniProt O00399), the NP40-soluble protein abundance is 1.01 ± 0.032.

For the target “K7EKG9 and related entries (UniProt Q14CW9)”, the NP40-soluble protein abundance turned out to be 1.02 ± 0.019.

With LSM1 (UniProt O15116), the NP40-soluble protein abundance stood at 0.954 ± 0.034.

As to SCAMP3 (UniProt O14828), the NP40-soluble protein abundance is 1.03 ± 0.056.

As to UniProt O15530 and related entries, the NP40-soluble protein abundance was found to be 0.975 ± 0.063.

With UniProt O43148 and related entries, the NP40-soluble protein abundance amounted to 1 ± 0.026.

With “K7EM18 and related entries (UniProt P41567)”, the NP40-soluble protein abundance came out at 1.08 ± 0.096.

In the case of CHMP2A (UniProt O43633), the NP40-soluble protein abundance amounted to 0.994 ± 0.024.

Take PIK3R2 (UniProt O00459): the NP40-soluble protein abundance worked out at 0.971 ± 0.048.

Turning to UniProt O43379-4|O43379, the NP40-soluble protein abundance was determined as 1 ± 0.018.

For TAF4 (UniProt O00268), the NP40-soluble protein abundance was determined as 1.02 ± 0.046.

For the target SPTLC2 (UniProt O15270), the NP40-soluble protein abundance was determined as 1.02 ± 0.058.

For POLRMT (UniProt O00411), the NP40-soluble protein abundance was determined as 0.967 ± 0.02.

With UniProt O43150 and related entries, the NP40-soluble protein abundance turned out to be 0.974 ± 0.021.

As for HMGN4 (UniProt O00479), the NP40-soluble protein abundance is 1.02 ± 0.022.

Take M0QZR4 (UniProt Q92888): the NP40-soluble protein abundance was 1 ± 0.026.

Consider UniProt O43318-2|O43318, for which the NP40-soluble protein abundance is 0.969 ± 0.018.

As for “K7EMK7 and related entries (UniProt Q04725)”, the NP40-soluble protein abundance stood at 1.0146 ± 0.00093.

For UniProt O14617 and related entries, the NP40-soluble protein abundance is 1.02 ± 0.012.

As to UniProt O15015 and related entries, the NP40-soluble protein abundance stood at 1.02 ± 0.031.

As to UniProt O00463 and related entries, the NP40-soluble protein abundance was 0.938 ± 0.013.

As for UniProt O15020 and related entries, the NP40-soluble protein abundance amounted to 1.008 ± 0.004.

For the target UniProt O14773 and related entries, the NP40-soluble protein abundance was 1.01 ± 0.043.

Regarding UniProt O14787-2, the NP40-soluble protein abundance is 1.03 ± 0.025.

Take “K7EKW4 and related entries (UniProt Q96AB3)”: the NP40-soluble protein abundance is 1.03 ± 0.036.

On to NDUFA4 (UniProt O00483), for which the NP40-soluble protein abundance is 0.981 ± 0.035.

As to NDC80 (UniProt O14777), the NP40-soluble protein abundance was 0.984 ± 0.012.

UniProt O43524 and related entries: the NP40-soluble protein abundance is 0.9991 ± 0.0026.

For the target PPM1G (UniProt O15355), the NP40-soluble protein abundance came out at 1.02 ± 0.063.

As to “M0R0P7 and related entries (UniProt Q02543)”, the NP40-soluble protein abundance worked out at 1.01 ± 0.045.

For the target UniProt O00743 and related entries, the NP40-soluble protein abundance amounted to 0.992 ± 0.072.

In the case of XPO1 (UniProt O14980), the NP40-soluble protein abundance is 0.974 ± 0.071.

With ARID1A (UniProt O14497), the NP40-soluble protein abundance is 1.01 ± 0.052.

On to UniProt O43665 and related entries, for which the NP40-soluble protein abundance is 1.01 ± 0.043.

For SLC16A3 (UniProt O15427), the NP40-soluble protein abundance stood at 0.99275 ± 0.00018.

As for UniProt O15226 and related entries, the NP40-soluble protein abundance is 1.02 ± 0.024.

Regarding PPIH (UniProt O43447), the NP40-soluble protein abundance was 0.97 ± 0.058.

As for “K7ESQ0 and related entries (UniProt Q9H6Z4)”, the NP40-soluble protein abundance was 0.991 ± 0.031.
